Results reported in ChEMBL document CHEMBL2218924, “A broad activity screen in support of a chemogenomic map for kinase signalling research and drug discovery” (Biochem J, 2013).
For part of these data: What follows is the remainder of the data, with few or none of the strong results. Only a part is listed here, and it is no random draw.

Chains of the proteins cited; added tags and fusions are not shown. Lines headed by an entry give the natural chain unless they say otherwise; changes in a name come on top.
UniProt Q15139: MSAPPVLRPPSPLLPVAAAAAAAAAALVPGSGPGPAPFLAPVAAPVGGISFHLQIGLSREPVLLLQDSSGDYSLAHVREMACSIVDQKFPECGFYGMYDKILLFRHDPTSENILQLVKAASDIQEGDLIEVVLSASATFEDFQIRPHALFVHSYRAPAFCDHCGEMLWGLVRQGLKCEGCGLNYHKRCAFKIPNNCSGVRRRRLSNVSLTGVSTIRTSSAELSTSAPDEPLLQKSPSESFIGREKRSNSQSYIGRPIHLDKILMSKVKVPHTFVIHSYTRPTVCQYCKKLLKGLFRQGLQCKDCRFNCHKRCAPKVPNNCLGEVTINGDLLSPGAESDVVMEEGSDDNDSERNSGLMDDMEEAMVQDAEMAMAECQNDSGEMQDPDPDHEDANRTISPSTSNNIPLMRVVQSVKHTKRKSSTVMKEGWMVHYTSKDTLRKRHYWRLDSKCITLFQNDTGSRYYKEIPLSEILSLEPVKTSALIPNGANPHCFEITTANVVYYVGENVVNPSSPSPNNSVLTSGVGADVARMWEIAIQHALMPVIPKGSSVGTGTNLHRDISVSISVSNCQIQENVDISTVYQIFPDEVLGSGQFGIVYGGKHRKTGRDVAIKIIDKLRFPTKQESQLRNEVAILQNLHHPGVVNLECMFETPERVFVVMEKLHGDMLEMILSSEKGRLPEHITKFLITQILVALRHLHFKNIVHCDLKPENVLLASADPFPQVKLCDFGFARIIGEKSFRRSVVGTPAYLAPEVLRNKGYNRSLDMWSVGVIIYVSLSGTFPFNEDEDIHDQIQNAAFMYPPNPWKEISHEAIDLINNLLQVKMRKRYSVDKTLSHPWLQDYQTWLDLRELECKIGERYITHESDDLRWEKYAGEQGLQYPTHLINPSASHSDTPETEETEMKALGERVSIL
UniProt Q9BZL6: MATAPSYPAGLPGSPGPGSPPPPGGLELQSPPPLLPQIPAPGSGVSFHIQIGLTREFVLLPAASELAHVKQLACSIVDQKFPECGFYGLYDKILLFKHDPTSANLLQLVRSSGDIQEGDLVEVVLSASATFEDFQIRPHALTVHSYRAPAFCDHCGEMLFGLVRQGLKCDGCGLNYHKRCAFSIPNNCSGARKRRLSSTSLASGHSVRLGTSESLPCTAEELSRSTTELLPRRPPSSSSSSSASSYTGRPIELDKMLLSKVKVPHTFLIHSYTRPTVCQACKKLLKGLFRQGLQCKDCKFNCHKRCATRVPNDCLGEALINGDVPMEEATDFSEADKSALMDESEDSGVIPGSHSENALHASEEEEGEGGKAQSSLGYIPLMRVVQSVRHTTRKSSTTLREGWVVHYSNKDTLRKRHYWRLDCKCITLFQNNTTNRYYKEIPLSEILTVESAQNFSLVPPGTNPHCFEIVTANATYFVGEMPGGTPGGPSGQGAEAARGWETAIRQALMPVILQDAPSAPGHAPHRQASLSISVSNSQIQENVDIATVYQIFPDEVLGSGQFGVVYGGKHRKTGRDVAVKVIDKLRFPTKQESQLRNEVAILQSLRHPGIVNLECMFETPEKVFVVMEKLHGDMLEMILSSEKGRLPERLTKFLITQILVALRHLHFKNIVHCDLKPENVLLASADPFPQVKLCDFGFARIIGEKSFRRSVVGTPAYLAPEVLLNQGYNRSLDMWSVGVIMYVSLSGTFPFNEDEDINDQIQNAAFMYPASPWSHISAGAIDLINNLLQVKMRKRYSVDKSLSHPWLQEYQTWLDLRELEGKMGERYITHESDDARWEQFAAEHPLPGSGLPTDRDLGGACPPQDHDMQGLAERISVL
UniProt P42685: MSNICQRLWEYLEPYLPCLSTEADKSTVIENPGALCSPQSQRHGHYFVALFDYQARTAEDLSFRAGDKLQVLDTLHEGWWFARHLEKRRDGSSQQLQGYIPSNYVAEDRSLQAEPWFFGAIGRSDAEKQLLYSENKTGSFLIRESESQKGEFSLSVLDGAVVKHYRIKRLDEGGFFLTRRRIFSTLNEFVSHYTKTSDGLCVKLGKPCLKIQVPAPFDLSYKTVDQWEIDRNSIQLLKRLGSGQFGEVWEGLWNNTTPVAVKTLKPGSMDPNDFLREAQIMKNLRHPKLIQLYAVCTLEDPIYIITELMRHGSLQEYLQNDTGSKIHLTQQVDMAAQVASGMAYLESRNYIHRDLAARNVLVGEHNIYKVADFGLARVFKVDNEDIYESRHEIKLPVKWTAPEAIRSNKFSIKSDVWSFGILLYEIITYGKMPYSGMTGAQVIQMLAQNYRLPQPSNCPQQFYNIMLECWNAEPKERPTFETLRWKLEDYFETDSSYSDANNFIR
UniProt Q9H4B4: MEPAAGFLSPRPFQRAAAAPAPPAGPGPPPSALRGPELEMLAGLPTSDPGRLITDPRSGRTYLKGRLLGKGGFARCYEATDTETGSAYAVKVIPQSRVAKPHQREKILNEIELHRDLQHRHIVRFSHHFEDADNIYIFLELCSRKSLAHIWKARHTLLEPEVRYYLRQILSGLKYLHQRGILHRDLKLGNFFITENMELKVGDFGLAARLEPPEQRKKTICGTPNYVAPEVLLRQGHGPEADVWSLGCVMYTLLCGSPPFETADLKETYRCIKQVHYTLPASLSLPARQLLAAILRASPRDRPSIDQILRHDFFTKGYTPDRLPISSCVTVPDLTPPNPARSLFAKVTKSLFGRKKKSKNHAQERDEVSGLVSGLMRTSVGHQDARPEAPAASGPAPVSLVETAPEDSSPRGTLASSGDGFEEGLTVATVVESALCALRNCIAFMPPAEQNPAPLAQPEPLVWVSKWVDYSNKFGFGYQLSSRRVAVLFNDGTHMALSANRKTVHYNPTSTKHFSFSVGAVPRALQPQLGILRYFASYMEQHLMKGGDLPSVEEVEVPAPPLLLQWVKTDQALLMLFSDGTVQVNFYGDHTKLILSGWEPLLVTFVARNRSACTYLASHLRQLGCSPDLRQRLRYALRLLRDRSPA
UniProt Q14289, whole entry, looked up: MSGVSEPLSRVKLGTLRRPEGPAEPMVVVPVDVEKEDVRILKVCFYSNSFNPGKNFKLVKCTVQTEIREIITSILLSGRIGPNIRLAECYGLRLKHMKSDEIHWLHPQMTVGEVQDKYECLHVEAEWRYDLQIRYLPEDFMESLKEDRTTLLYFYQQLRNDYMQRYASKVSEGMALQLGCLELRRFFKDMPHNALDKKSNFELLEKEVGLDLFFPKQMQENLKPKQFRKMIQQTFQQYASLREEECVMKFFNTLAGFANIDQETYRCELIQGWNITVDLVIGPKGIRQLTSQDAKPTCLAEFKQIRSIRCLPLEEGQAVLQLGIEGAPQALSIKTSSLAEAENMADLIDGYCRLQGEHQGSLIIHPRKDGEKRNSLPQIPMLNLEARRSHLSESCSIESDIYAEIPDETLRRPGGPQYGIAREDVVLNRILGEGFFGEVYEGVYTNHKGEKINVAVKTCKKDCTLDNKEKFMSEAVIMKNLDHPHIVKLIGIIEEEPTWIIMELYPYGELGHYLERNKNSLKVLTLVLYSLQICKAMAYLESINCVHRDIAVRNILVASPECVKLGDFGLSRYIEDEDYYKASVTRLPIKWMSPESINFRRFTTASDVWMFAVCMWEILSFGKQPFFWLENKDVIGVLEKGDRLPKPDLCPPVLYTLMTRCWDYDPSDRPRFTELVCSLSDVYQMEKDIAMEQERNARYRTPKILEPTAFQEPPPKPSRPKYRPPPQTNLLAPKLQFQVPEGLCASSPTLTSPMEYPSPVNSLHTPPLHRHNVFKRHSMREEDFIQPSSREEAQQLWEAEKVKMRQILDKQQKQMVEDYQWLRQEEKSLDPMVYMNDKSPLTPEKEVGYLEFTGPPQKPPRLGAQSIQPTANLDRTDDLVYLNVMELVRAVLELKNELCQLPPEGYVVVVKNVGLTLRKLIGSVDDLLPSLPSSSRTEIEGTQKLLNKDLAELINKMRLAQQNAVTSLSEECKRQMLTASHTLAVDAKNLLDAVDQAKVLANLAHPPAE
UniProt Q04912, whole entry: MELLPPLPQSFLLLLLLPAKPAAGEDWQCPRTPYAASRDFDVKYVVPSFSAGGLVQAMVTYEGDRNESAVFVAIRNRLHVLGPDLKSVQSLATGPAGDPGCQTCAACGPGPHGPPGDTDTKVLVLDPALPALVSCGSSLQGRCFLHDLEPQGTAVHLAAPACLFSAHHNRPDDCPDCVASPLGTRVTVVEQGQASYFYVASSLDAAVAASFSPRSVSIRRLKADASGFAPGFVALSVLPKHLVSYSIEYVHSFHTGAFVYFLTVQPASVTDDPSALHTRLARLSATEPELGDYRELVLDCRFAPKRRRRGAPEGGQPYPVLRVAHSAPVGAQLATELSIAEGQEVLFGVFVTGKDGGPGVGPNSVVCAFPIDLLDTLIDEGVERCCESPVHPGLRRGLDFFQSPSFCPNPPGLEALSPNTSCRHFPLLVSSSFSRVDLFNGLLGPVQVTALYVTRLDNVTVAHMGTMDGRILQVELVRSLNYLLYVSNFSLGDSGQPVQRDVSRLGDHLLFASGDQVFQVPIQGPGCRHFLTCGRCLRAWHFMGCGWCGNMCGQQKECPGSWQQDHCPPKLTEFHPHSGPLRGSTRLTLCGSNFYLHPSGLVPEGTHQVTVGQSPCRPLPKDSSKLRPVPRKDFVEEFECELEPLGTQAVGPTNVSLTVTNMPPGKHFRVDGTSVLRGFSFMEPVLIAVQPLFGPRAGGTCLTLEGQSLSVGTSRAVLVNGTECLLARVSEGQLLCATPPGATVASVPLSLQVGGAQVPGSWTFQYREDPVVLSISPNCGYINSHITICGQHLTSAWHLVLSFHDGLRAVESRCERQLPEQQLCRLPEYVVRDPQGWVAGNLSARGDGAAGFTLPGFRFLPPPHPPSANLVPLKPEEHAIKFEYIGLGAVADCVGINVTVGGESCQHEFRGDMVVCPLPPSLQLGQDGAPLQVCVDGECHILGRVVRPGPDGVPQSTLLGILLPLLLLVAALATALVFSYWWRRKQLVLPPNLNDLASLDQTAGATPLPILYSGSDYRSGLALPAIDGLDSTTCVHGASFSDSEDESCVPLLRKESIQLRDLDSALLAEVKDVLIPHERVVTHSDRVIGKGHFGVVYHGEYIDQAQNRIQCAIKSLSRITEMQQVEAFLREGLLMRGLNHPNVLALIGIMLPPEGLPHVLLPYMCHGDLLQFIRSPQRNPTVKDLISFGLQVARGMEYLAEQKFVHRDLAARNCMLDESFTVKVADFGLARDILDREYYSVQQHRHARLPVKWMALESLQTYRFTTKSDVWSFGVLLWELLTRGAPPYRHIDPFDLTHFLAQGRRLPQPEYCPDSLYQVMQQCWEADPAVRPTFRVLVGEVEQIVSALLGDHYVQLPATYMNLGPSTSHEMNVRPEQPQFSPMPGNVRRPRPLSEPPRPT
UniProt P51812, whole entry: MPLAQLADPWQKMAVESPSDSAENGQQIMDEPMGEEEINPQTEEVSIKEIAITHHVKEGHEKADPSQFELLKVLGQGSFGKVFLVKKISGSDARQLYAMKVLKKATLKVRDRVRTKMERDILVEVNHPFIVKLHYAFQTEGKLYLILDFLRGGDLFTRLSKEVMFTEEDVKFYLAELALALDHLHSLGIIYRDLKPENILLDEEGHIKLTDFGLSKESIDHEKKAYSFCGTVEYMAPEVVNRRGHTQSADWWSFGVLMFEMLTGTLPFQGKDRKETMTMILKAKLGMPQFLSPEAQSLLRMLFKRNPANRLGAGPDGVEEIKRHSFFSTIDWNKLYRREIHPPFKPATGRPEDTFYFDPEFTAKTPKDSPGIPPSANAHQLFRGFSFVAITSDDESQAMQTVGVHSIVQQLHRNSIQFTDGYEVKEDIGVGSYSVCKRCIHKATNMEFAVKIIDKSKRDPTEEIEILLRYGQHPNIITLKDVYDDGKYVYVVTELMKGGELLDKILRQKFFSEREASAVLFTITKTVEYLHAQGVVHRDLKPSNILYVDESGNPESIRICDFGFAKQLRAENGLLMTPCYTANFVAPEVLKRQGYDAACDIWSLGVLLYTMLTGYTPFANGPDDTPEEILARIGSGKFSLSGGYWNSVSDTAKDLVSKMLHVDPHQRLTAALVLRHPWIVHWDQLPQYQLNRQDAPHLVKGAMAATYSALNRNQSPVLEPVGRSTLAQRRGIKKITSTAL

What was measured:
[1] = molecular target: Protein kinase C iota type (Homo sapiens) (UniProt P41743); settings: at 10 µM
[2] = molecular target: Serine/threonine-protein kinase D1 (Homo sapiens) (UniProt Q15139); settings: at 1 µM
[3] = molecular target: Serine/threonine-protein kinase D1 (Homo sapiens) (UniProt Q15139); settings: at 10 µM
[4] = molecular target: Serine/threonine-protein kinase D2 (Homo sapiens) (UniProt Q9BZL6); settings: at 1 µM
[5] = molecular target: Serine/threonine-protein kinase D2 (Homo sapiens) (UniProt Q9BZL6); settings: at 10 µM
[6] = molecular target: T1, cGMP-dependent protein kinase 1 (Homo sapiens) (UniProt Q13976); settings: at 1 µM
T1 sequence (whole entry): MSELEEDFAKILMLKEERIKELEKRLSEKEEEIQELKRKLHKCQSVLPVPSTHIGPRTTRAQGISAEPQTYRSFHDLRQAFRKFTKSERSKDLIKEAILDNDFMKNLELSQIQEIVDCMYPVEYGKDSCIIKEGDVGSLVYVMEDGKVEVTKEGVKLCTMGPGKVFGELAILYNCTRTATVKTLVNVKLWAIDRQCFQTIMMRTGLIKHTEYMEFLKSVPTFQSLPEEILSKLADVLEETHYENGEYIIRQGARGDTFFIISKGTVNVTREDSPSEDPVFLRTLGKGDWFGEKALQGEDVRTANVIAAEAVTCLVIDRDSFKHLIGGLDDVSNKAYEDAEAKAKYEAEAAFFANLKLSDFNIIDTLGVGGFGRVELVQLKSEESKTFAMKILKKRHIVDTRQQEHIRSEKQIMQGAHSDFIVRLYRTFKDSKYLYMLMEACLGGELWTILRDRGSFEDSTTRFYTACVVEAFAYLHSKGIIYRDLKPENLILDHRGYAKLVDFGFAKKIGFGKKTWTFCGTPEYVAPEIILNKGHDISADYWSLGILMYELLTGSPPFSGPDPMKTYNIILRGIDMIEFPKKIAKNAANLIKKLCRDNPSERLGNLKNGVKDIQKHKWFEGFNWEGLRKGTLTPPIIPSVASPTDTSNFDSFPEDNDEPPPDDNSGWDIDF

[7] = molecular target: T1, cGMP-dependent protein kinase 1 (Homo sapiens); settings: at 10 µM
[8] = molecular target: T1, cGMP-dependent protein kinase 1 (Homo sapiens); settings: at 1 µM; remark: listed apart in the source
[9] = molecular target: T1, cGMP-dependent protein kinase 1 (Homo sapiens); settings: at 10 µM; remark: listed apart in the source
[10] = molecular target: MAP kinase-activated protein kinase 5 (Homo sapiens) (UniProt Q8IW41); settings: at 1 µM
[11] = molecular target: MAP kinase-activated protein kinase 5 (Homo sapiens) (UniProt Q8IW41); settings: at 10 µM
[12] = molecular target: Serine/threonine-protein kinase N2 (Homo sapiens) (UniProt Q16513); settings: at 1 µM
[13] = molecular target: Serine/threonine-protein kinase N2 (Homo sapiens) (UniProt Q16513); settings: at 10 µM
[14] = molecular target: Tyrosine-protein kinase FRK (Homo sapiens) (UniProt P42685); settings: at 1 µM
[15] = molecular target: Tyrosine-protein kinase FRK (Homo sapiens) (UniProt P42685); settings: at 10 µM
[16] = molecular target: Phosphorylase b kinase gamma catalytic chain, liver/testis isoform (Homo sapiens) (UniProt P15735); settings: at 1 µM
[17] = molecular target: Phosphorylase b kinase gamma catalytic chain, liver/testis isoform (Homo sapiens) (UniProt P15735); settings: at 10 µM
[18] = molecular target: Serine/threonine-protein kinase pim-1 (Homo sapiens) (UniProt P11309); settings: at 1 µM
[19] = molecular target: Serine/threonine-protein kinase pim-1 (Homo sapiens) (UniProt P11309); settings: at 10 µM
[20] = molecular target: Serine/threonine-protein kinase pim-2 (Homo sapiens) (UniProt Q9P1W9); settings: at 1 µM
[21] = molecular target: Serine/threonine-protein kinase pim-2 (Homo sapiens) (UniProt Q9P1W9); settings: at 10 µM
[22] = molecular target: Serine/threonine-protein kinase pim-3 (Homo sapiens) (UniProt Q86V86); settings: at 1 µM
[23] = molecular target: Serine/threonine-protein kinase pim-3 (Homo sapiens) (UniProt Q86V86); settings: at 10 µM
[24] = molecular target: Serine/threonine-protein kinase PLK1 (Homo sapiens) (UniProt P53350); settings: at 1 µM
[25] = molecular target: Serine/threonine-protein kinase PLK1 (Homo sapiens) (UniProt P53350); settings: at 10 µM
[26] = molecular target: Serine/threonine-protein kinase PLK3 (Homo sapiens) (UniProt Q9H4B4); settings: at 1 µM
[27] = molecular target: Serine/threonine-protein kinase PLK3 (Homo sapiens) (UniProt Q9H4B4); settings: at 10 µM
[28] = molecular target: cAMP-dependent protein kinase catalytic subunit PRKX (Homo sapiens) (UniProt P51817); settings: at 1 µM
[29] = molecular target: cAMP-dependent protein kinase catalytic subunit PRKX (Homo sapiens) (UniProt P51817); settings: at 10 µM
[30] = molecular target: Protein-tyrosine kinase 2-beta (Homo sapiens) (UniProt Q14289); settings: at 1 µM
[31] = molecular target: Protein-tyrosine kinase 2-beta (Homo sapiens) (UniProt Q14289); settings: at 10 µM
[32] = molecular target: Receptor-interacting serine/threonine-protein kinase 2 (Homo sapiens) (UniProt O43353); settings: at 1 µM
[33] = molecular target: Receptor-interacting serine/threonine-protein kinase 2 (Homo sapiens) (UniProt O43353); settings: at 10 µM
[34] = molecular target: Rho-associated protein kinase 1 (Homo sapiens) (UniProt Q13464); settings: at 1 µM
[35] = molecular target: Rho-associated protein kinase 1 (Homo sapiens) (UniProt Q13464); settings: at 10 µM
[36] = molecular target: Rho-associated protein kinase 2 (Homo sapiens) (UniProt O75116); settings: at 1 µM
[37] = molecular target: Rho-associated protein kinase 2 (Homo sapiens) (UniProt O75116); settings: at 10 µM
[38] = molecular target: Proto-oncogene tyrosine-protein kinase receptor Ret (Homo sapiens) (UniProt P07949); settings: at 1 µM
[39] = molecular target: Proto-oncogene tyrosine-protein kinase receptor Ret (Homo sapiens) (UniProt P07949); settings: at 10 µM
[40] = molecular target: Macrophage-stimulating protein receptor (Homo sapiens) (UniProt Q04912); settings: at 1 µM
[41] = molecular target: Macrophage-stimulating protein receptor (Homo sapiens) (UniProt Q04912); settings: at 10 µM
[42] = molecular target: Proto-oncogene tyrosine-protein kinase ROS (Homo sapiens) (UniProt P08922); settings: at 1 µM
[43] = molecular target: Proto-oncogene tyrosine-protein kinase ROS (Homo sapiens) (UniProt P08922); settings: at 10 µM
[44] = molecular target: Tyrosine-protein kinase receptor TYRO3 (Homo sapiens) (UniProt Q06418); settings: at 1 µM
[45] = molecular target: Tyrosine-protein kinase receptor TYRO3 (Homo sapiens) (UniProt Q06418); settings: at 10 µM
[46] = molecular target: Ribosomal protein S6 kinase alpha-1 (Homo sapiens) (UniProt Q15418); settings: at 1 µM
[47] = molecular target: Ribosomal protein S6 kinase alpha-1 (Homo sapiens) (UniProt Q15418); settings: at 10 µM
[48] = molecular target: Ribosomal protein S6 kinase alpha-3 (Homo sapiens) (UniProt P51812); settings: at 1 µM
[49] = molecular target: Ribosomal protein S6 kinase alpha-3 (Homo sapiens) (UniProt P51812); settings: at 10 µM
[50] = molecular target: Ribosomal protein S6 kinase alpha-2 (Homo sapiens) (UniProt Q15349); settings: at 1 µM
[51] = molecular target: Ribosomal protein S6 kinase alpha-2 (Homo sapiens) (UniProt Q15349); settings: at 10 µM
[52] = molecular target: Ribosomal protein S6 kinase alpha-6 (Homo sapiens) (UniProt Q9UK32); settings: at 1 µM
[53] = molecular target: Ribosomal protein S6 kinase alpha-6 (Homo sapiens) (UniProt Q9UK32); settings: at 10 µM
[54] = molecular target: Mitogen-activated protein kinase 14 (Homo sapiens) (UniProt Q16539); settings: at 1 µM
[55] = molecular target: Mitogen-activated protein kinase 14 (Homo sapiens) (UniProt Q16539); settings: at 10 µM
[56] = molecular target: Mitogen-activated protein kinase 11 (Homo sapiens) (UniProt Q15759); settings: at 1 µM
[57] = molecular target: Mitogen-activated protein kinase 11 (Homo sapiens) (UniProt Q15759); settings: at 10 µM

O=C1Nc2ccc(-c3cccnc3)cc2/C1=C\c1ccc[nH]1
residual activity [1]: 77%
residual activity [2]: 6%
residual activity [3]: 1%
residual activity [4]: 25%
residual activity [5]: 4%
residual activity [6]: 65%
residual activity [7]: 16%
residual activity [8]: 39%
residual activity [9]: 7%
residual activity [10]: 43%
residual activity [11]: 7%
residual activity [12]: 15%
residual activity [13]: 2%
residual activity [14]: 69%
residual activity [15]: 35%
residual activity [16]: 22%
residual activity [17]: 3%
residual activity [18]: 35%
residual activity [19]: 2%
residual activity [20]: 13%
residual activity [21]: 5%
residual activity [22]: 63%
residual activity [23]: 22%
residual activity [24]: 77%
residual activity [25]: 55%
residual activity [26]: inactive: 92%
residual activity [27]: 86%
residual activity [28]: 37%
residual activity [29]: 4%
residual activity [30]: 84%
residual activity [31]: 25%
residual activity [32]: 30%
residual activity [33]: 7%
residual activity [34]: 86%
residual activity [35]: 24%
residual activity [36]: 10%
residual activity [37]: 1%
residual activity [38]: 13%
residual activity [39]: 0%
residual activity [40]: 67%
residual activity [41]: 7%
residual activity [42]: 85%
residual activity [43]: 80%
residual activity [44]: 55%
residual activity [45]: 12%
residual activity [46]: 10%
residual activity [47]: 2%
residual activity [48]: 11%
residual activity [49]: 1%
residual activity [50]: 3%
residual activity [51]: 1%
residual activity [52]: 10%
residual activity [53]: 1%
residual activity [54]: 87%
residual activity [55]: 67%
residual activity [56]: 83%
residual activity [57]: 73%
